Reference: patent publication US20250017940A1, “SELECTIVE PEPTIDOMIMETIC MODULATORS OF CAV2.2 (N-TYPE) VOLTAGE-GATED CALCIUM CHANNELS AND USES THEREOF” (New York University, priority 2023, published 2025)
Some entries share one result that the patent states for a list of compounds.

Tested on: high-voltage-activated (HVA) Ca2+ channels in DRG neurons
Test: Depolarization-induced Ca2+ influx (Fura-2AM calcium imaging, 90 mM KCl)
Type: cell-based, rat
Conditions: 20 μM overnight incubation, DRG neurons of all sizes

| SMILES | inhibition of Ca2+ influx relative to the DMSO-treated (control) group |
| --- | --- |
| CCn1nc(C(C)C)cc1C(=O)NCCCNc1ccc(C)cn1 [CBD3039, 2-ethyl-5-isopropyl-N-{3-[(5-methylpyridin-2-yl)amino]propyl}pyrazole-3-carboxamide] | more than 50% |
| O=C(NCCCNc1ccccn1)N[C@H]1CCCCNC1=O [CBD3062, 1-[(3S)-2-oxoazepan-3-yl]-3-[3-(pyridin-2-ylamino)propyl]urea] | more than 50% |
| CC(=O)N[C@@H]1CCCN(C(=O)NCCCNc2ccccn2)C1 [CBD3063, (3R)-3-acetamido-N-[3-(pyridin-2-ylamino)propyl]piperidine-1-carboxamide] | more than 50% |
| Cc1ccc(NCCCNC(=O)c2ccc(=O)n(C)c2)nc1 [CBD3033, 1-methyl-N-{3-[(5-methylpyridin-2-yl)amino]propyl}-6-oxopyridine-3-carboxamide] | more than 50% |
| N=C(NCCCN1CCc2ccccc2C1)NCc1ccccc1 [CBD3065, N′-benzyl-N-[3-(3,4-dihydro-1H-isoquinolin-2-yl)propyl]guanidine] | more than 50% |
| CCN(C(=O)c1ccccc1)[C@H](CCCNC(=N)N)C(=O)O [CBD3026, ethyl N-benzoyl-(R)-arginine] | more than 50% |
| COc1ccccc1CNC(=N)NCCCN1Cc2ccccc2C1 [CBD3074, N-[3-(1,3-dihydroisoindol-2-yl)propyl]-N′-[(2-methoxyphenyl)methyl]guanidine] | more than 50% |
| Cc1ccc(NCCCNC(=O)c2ccc3cccc(F)c3n2)nc1 [CBD3038, 8-fluoro-N-{3-[(5-methylpyridin-2-yl)amino]propyl}quinoline-2-carboxamide] | more than 50% |
| C/N=C(/NC)NCCCCN1C[C@H](C)C[C@H](C)C1 [CBD3018, (Z)-N′-{4-[(3R,5S)-3,5-dimethylpiperidin-1-yl]butyl}-N,N′′-dimethylguanidine] | more than 50% |
